Assay results from PubChem BioAssay AID493014 (National Center for Advancing Translational Sciences (NCATS), 2011).
Values joined by “and” are separate entries in the source; they are usually repeats but may differ in a detail not shown here. Equal entries are not always repeated. The list shows a part of the results. Shown are side measurements of this screen, not its main read-out; they come without a call. The list favours compounds with an active or inconclusive main result. The note in brackets gives the kind of curve behind each potency; many fits are weak.

Assay: qHTS Assay to Find Inhibitors of Chronic Active B-Cell Receptor Signaling
Conditions: ABC-DLBCL IkBa-CBG/CBR reporter, luminescence ratio (green luciferase fused to IkBa over red control in TMD8 lymphoma cells), 4 h
Procedure, shortened: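 Doxycycline induced both beetle luciferases in TMD8 lymphoma cells; IKK-driven degradation limits the IkappaBalpha-fused green signal, while red luminescence normalises for cell number and nonspecific effects. Compounds tested up to 46 uM, 4 hrs.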

[1] = measured here: CBR red luminescence, cell number
[2] = measured here: IkBa-CBG green luminescence

| SMILES | AC50 [1] | AC50 [2] |
| --- | --- | --- |
| Cc1c(N=N/C(C(=O)Nc2ccccc2)=C(/O)c2ccccc2)c(=O)n(-c2ccccc2)n1C | 7.08 µM [falling, partial curve, poor fit] | – |
| c1ccc(-c2nc(-c3ccco3)n3ccccc23)cc1 | 25.9 µM [falling, single point] | – |
| Cc1ccc(NC(=O)CSC(C)C(=O)NCCc2ccccn2)cc1 (configuration not stated) | 0.0891 µM [rising, full curve, poor fit] | – |
| COC(=O)C1=CN(Cc2ccc(OC)cc2)C=C(C(=O)OC)C1c1cccs1 | 35.5 µM [falling, partial curve, poor fit] | – |
| O=C(O)c1cc2cc(Cl)cc(Cl)c2oc1=O | 31.6 µM [rising, single point] | – |
| COCCC(=O)N1CCc2ccc(NC(=O)c3ccc(C(F)(F)F)cc3)cc2C1 | 5.01 µM [rising, partial curve, poor fit] | – |
| C/C(=N\Nc1ccc(S(N)(=O)=O)cc1[N+](=O)[O-])c1ccco1 | 35.5 µM [rising, single point] | – |
| O=C(CSc1nnnn1-c1ccccc1)Nc1nsc(-c2ccc(Cl)cc2)n1 | – | 5.17 µM [falling, partial curve, poor fit] |
| Oc1c(Br)cc(Br)cc1CNc1nccs1 | 5.01 µM [rising, full curve, poor fit] | – |
| CC1(C)Oc2ccccc2OC1(O)c1ccc2ccccc2n1 (configuration not stated) | 8.2 µM [rising, partial curve, poor fit] | – |
| Cc1nnc2sc(SCc3ccc(Cl)cc3)nn2c1=O | 0.082 µM [falling, full curve] | – |
| CCNS(=O)(=O)c1c(C)cc(C)c(N(C)S(=O)(=O)c2ccccc2)c1C | 28.2 µM [rising, single point] | – |
| N#CC1=C(N)Oc2c(ccc3cccnc23)C1c1cccnc1 (configuration not stated) | 0.259 µM [falling, full curve, poor fit] | – |
| Cc1ccc(-n2ncc3c(=O)n(-c4ccc(C)c(C)c4)c(-c4ccco4)nc32)cc1 | 3.66 µM [falling, full curve] | 3.66 µM [rising, full curve] |
| O=C(O)c1c(-c2ccccc2)c2oc3ccccc3c2[nH]c1=O | 35.5 µM [falling, single point] | – |
| COC(=O)c1scc(-c2ccccc2)c1S(=O)(=O)Nc1ccccc1 | 31.6 µM [falling, single point] | – |
| Cc1ccc(NC(=O)c2ccc(Cl)c(S(=O)(=O)N3CCCCCC3)c2)nc1 | 3.66 µM [falling, partial curve, poor fit] | – |
| COc1ccc(NC(=O)CCN2C(=O)c3ccccc3C2=O)cc1 | 15.8 µM [rising, single point] | – |
| Cc1ccc(N2CC(NC(=O)/C=C\c3ccc4c(c3)OCO4)CC2=O)cc1C (configuration not stated) | 35.5 µM [falling, single point] | – |
| Cc1ccc(NC(=O)Nc2ccc3c(c2)OCO3)nc1 | 0.0891 µM [rising, full curve, poor fit] | – |
| Cc1ccc(C(=O)CNc2cc(C)ccc2C)cc1 | 25.1 µM [falling, single point] | – |
| CCOc1ccc(NS(=O)(=O)c2ccc(C(=O)N(C)CC(=O)Nc3ccc(OC)cc3)cc2)cc1 | 2.91 µM [falling, full curve] | – |

Fetched by structure from above (two):

| SMILES | AC50 [1] | AC50 [2] |
| --- | --- | --- |
| Cc1ccc(-n2ncc3c(=O)n(-c4ccc(C)c(C)c4)c(-c4ccco4)nc32)cc1 | 3.66 µM [falling, full curve] | 3.66 µM [rising, full curve] |
| COC(=O)C1=CN(Cc2ccc(OC)cc2)C=C(C(=O)OC)C1c1cccs1 | 35.5 µM [falling, partial curve, poor fit] | – |

Following part

| SMILES | AC50 [1] | AC50 [2] |
| --- | --- | --- |
| COc1cccc(C(=O)Nc2cccc3cccnc23)c1OC | 11.2 µM [rising, partial curve] | – |
| O=C(COC(=O)Cc1ccc(S(=O)(=O)N2CCOCC2)s1)NCc1ccc(Cl)cc1 | 20.6 µM [rising, single point] | – |
| Cn1c(=O)n(C)c2cc(NS(C)(=O)=O)ccc21 | 25.1 µM [rising, single point] | – |
| CCc1nc(SCC(=O)c2ccccc2)c2ccccc2n1 | 35.5 µM [falling, single point] | – |
| CCn1cc(CNCc2cn(C)nc2-c2ccc(C3CCCCC3)cc2)cn1 | 35.5 µM [falling, single point] | – |
| COC(=O)c1c(NC(=O)CSc2nnc(C)c(=O)[nH]2)sc(C)c1C | 35.5 µM [falling, single point] | – |
| CCC1CCCCN1C(=O)COC(=O)c1ccc(Br)o1 (configuration not stated) | 0.82 µM [rising, full curve, poor fit] | – |
| COC(=O)c1ccc2nc(C(F)(F)F)[nH]c2c1 | 35.5 µM [falling, single point] | – |
| Oc1ccc(COCc2ccccc2)c2cccnc12 | 35.5 µM [falling, single point] and 23.1 µM [falling, partial curve] | 3.16 µM [falling, full curve] |
| COc1ccc(Cl)cc1CN1CCOCC1 | 28.2 µM [rising, single point] | – |
| CC(C)N(CCc1ccncc1)C(=S)Nc1cccc(Cl)c1 | 2 µM [rising, full curve, poor fit] | – |
| COc1cccc(-c2cc3c(=O)n(-c4ccccc4)c(=S)[nH]c3s2)c1 | 3.98 µM [rising, full curve, poor fit] | – |
| Cc1ccc(S(=O)(=O)Nc2ccc3oc(=O)sc3c2)c(C)c1 | 0.164 µM [falling, full curve, poor fit] | – |
| COc1ccc(NC(=O)c2ccc([N+](=O)[O-])s2)c([N+](=O)[O-])c1 | 1 µM [rising, full curve, poor fit] | – |
| N#Cc1c(Cl)nc(SCc2ccccc2)nc1-c1ccccc1 | 11.2 µM [falling, single point] | – |
| CNC(=O)COc1ncnc2sccc12 | 6.51 µM [rising, single point] | – |
| O=C(Nc1cccc(/C=C/c2ccccn2)c1)c1ccc(-n2cncn2)c([N+](=O)[O-])c1 | 2.06 µM [falling, single point] | – |
| O=C(COC(=O)C1CC2C=CC1C2)NCc1ccccc1Cl (configuration not stated) | 13 µM [falling, partial curve, poor fit] | – |
| COc1ccc(CN2CCCC(CO)(Cc3ccc(F)cc3)C2)cc1C (configuration not stated) | 35.5 µM [falling, single point] | – |
| Cc1onc(-c2ccccc2)c1C(=O)N/N=C/c1cccs1 | 5.62 µM [rising, single point] | – |
| CCN(CC(=O)Nc1ccc(C)c(S(=O)(=O)N(C)C)c1)Cc1ccccc1 | 11.2 µM [rising, partial curve, poor fit] | – |
| Cc1ccc(-n2cnc(N)c2C(=O)c2cccc([N+](=O)[O-])c2)cc1 | 35.5 µM [falling, single point] | – |

Full records, quoted from the list. Order of values: AC50 [1] | AC50 [2]
COC(=O)c1c(NC(=O)CSc2nnc(C)c(=O)[nH]2)sc(C)c1C is listed as 35.5 µM [falling, single point] | –
O=C(COC(=O)C1CC2C=CC1C2)NCc1ccccc1Cl (configuration not stated) is listed as 13 µM [falling, partial curve, poor fit] | –
O=C(Nc1cccc(/C=C/c2ccccn2)c1)c1ccc(-n2cncn2)c([N+](=O)[O-])c1 is listed as 2.06 µM [falling, single point] | –

Continued.

| SMILES | AC50 [1] | AC50 [2] |
| --- | --- | --- |
| COc1ccc(NC(=O)c2oc3ccc(S(=O)(=O)N4CCC5(CC4)OCCO5)cc3c2C)cc1 | 18.4 µM [falling, single point] | – |
| Cc1cc(C)cc(C(=O)OCC(=O)Nc2cccc(S(=O)(=O)NC3=NCCCCC3)c2)c1 | 16.4 µM [falling, single point] | – |
| CC(=O)c1ccc(NC(=S)N2CCN(CCN3C(=O)c4cccc5cccc(c45)C3=O)CC2)cc1 | 2.06 µM [falling, partial curve] | – |
| COc1ccccc1C(=O)NNC(=O)c1ccc(C)cc1 | 11.2 µM [falling, partial curve] | – |
| O=C(Nc1ccc2[nH]ncc2c1)c1ccccc1 | 14.1 µM [falling, partial curve, poor fit] | – |
| CCCCOC(=O)Nc1cccc(Cl)c1C | 29.1 µM [falling, single point] | – |
| Cc1ccc2ccc(C(Nc3cccc(C(F)(F)F)c3)c3cccnc3)c(O)c2n1 (configuration not stated) | 14.1 µM [falling, single point] | – |
| Cc1[nH]nc(S(=O)CC(=O)O)c1[N+](=O)[O-] (configuration not stated) | 11.2 µM [falling, partial curve] | – |
| COC(=O)Cc1ccc(NC(=S)N2CCN(c3cccc(O)c3)CC2)cc1 | 6.51 µM [falling, partial curve] | – |
| O=[N+]([O-])c1cccc(-c2nc(-c3ccccc3)no2)c1 | 1.78 µM [rising, partial curve, poor fit] | – |
| Cn1c(=O)n(C)c2cc(S(=O)(=O)Nc3cc(Cl)ccc3O)ccc21 | 17.8 µM [rising, partial curve, poor fit] | – |
| O=C(Nc1nccs1)c1ccc(-c2ccc(Cl)cc2)o1 | 10 µM [falling, partial curve, poor fit] | – |
| O=C(NCc1cc(Br)cc(Br)c1OC(=O)c1ccccc1[N+](=O)[O-])c1ccccc1 | 3.26 µM [falling, partial curve] | – |
| O=C(O)/C=C\C(=O)Nc1ccccc1C#Cc1ccc(Br)cc1 | 25.9 µM [falling, single point] | – |
| O=C(Nc1ccc(Nc2ccccc2)cc1)c1cc([N+](=O)[O-])ccc1Cl | 10 µM [falling, partial curve] | – |
| CCS(=O)(=O)Nc1ccc(C2=NN(C(=O)c3ccco3)C(c3ccco3)C2)cc1 (configuration not stated) | 9.2 µM [falling, partial curve, poor fit] | – |
| NNc1nc2c(Cl)c(Cl)ccc2s1 | 10.3 µM [falling, partial curve] | – |
| COc1nc(NCc2ccco2)nc(N2CCC(C)CC2)n1 | 10 µM [rising, partial curve] | – |
| COc1ccc(C(=O)NCCc2ccccc2)cc1OC | 11.2 µM [falling, single point] | – |
| Cc1ccc2cc(C)c3nnc(SCC(=O)c4cccs4)n3c2c1C | 18.4 µM [rising, partial curve, poor fit] | – |
| COc1ccc(-n2cc(-c3ccccc3)c3c(N4CCN(CCO)CC4)ncnc32)cc1 | 14.6 µM [falling, single point] | – |
